Source: patent publication US20170233737
For at least one entry, the source does not settle the construct or the ends of the probe.

Protein sequences, listed by entry. Tags and fused reporters are not part of them. Residues count along the entry.
UniProt P13500, 24-99: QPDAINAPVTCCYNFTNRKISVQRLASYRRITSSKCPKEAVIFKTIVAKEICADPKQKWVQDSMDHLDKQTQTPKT

Columns and labels:
[1] = biological target: human MCP-1 (CCL2, natural L-form) (Homo sapiens) (UniProt P13500); assay: SPR; conditions: L-RNA; range stated for 181-A2 and its derivatives, 37 C; mirror-image nucleic acid; variant of 181-A2 (L-RNA Spiegelmer)
[2] = biological target: human MCP-1 (CCL2, natural L-form) (Homo sapiens) (UniProt P13500); assay: activity in cells; conditions: L-RNA, inhibition of THP-1 chemotaxis, mirror-image nucleic acid, variant of 180-D1-036 (L-RNA Spiegelmer)

“GGGCGUAGUGAGAAACUACCAACGACUGGCUAGAGCCGGCCC [181-A2-018 (L-RNA)]”: binds [1].
“GCACGUCCCUCACCGGUGCAAGUGAAGCCGUGGCUCUGCG [180-D1-036-3'PEG]” was tested, and the IC50 ([2]; 3'-PEG 40 kDa) was under 1 nM.
In the case of “GCACGUCCCUCACCGGUGCAAGUGAAGCCGUGGCUCUGCG [180-D1-036-5'PEG (NOX-E36 when specific linker)]”, the IC50 ([2]; 5'-PEG 40 kDa) is reported as under 1 nM.
